Results as given in paper PMC5705137.
These are yes or no findings as the source states them, for the method shown. For some assays here: Binding seen in cells or lysates may run through a third protein. Some binding calls cover weakened binding; strength is not graded here. Sequences can lack the tags named with a protein.

T1: C-terminal 3xHA-tagged CERK1 (Arabidopsis) (UniProt A8R7E6)
T1 sequence: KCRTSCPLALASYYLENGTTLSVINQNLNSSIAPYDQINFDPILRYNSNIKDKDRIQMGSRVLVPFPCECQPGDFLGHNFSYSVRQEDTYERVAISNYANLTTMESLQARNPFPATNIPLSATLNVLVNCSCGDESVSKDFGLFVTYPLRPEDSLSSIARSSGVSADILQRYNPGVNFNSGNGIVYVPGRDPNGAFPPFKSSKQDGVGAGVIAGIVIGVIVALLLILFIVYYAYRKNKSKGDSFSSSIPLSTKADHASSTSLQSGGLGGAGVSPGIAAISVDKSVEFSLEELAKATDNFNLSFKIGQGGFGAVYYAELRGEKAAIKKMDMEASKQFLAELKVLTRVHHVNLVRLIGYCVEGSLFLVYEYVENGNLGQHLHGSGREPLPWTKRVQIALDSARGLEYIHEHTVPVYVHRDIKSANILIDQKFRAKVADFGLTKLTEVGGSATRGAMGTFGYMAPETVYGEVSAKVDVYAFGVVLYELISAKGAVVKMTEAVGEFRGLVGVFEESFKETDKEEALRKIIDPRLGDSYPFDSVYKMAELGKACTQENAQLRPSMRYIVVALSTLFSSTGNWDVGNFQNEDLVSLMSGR

T2: PBL27 (yeast two-hybrid fusion) (Arabidopsis) (UniProt Q1PDV6)
T2 sequence: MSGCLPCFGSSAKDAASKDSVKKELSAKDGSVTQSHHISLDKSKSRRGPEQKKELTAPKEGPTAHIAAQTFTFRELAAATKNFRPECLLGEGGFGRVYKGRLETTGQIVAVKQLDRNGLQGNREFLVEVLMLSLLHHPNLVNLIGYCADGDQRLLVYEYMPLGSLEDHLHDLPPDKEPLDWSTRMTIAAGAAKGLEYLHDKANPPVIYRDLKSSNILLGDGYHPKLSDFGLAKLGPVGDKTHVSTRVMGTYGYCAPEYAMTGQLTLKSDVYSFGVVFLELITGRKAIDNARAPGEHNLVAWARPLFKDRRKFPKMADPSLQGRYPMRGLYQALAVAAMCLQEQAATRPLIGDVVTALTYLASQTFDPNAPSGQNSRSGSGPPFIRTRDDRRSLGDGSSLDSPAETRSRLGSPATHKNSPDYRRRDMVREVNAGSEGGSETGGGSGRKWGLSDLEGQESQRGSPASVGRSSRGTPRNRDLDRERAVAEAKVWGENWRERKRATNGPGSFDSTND

B1: N-terminal GFP-fused PUB12 (enzyme, UniProt Q9ZV31 1-654)
chain: MAKSEKHKLAQTLIDSINEIASISDSVTPMKKHCANLSRRLSLLLPMLEEIRDNQESSSEVVNALLSVKQSLLHAKDLLSFVSHVSKIYLVLERDQVMVKFQKVTSLLEQALSIIPYENLEISDELKEQVELVLVQLRRSLGKRGGDVYDDELYKDVLSLYSGRGSVMESDMVRRVAEKLQLMTITDLTQESLALLDMVSSSGGDDPGESFEKMSMVLKKIKDFVQTYNPNLDDAPLRLKSSLPKSRDDDRDMLIPPEEFRCPISLELMTDPVIVSSGQTYERECIKKWLEGGHLTCPKTQETLTSDIMTPNYVLRSLIAQWCESNGIEPPKRPNISQPSSKASSSSSAPDDEHNKIEELLLKLTSQQPEDRRSAAGEIRLLAKQNNHNRVAIAASGAIPLLVNLLTISNDSRTQEHAVTSILNLSICQENKGKIVYSSGAVPGIVHVLQKGSMEARENAAATLFSLSVIDENKVTIGAAGAIPPLVTLLSEGSQRGKKDAATALFNLCIFQGNKGKAVRAGLVPVLMRLLTEPESGMVDESLSILAILSSHPDGKSEVGAADAVPVLVDFIRSGSPRNKENSAAVLVHLCSWNQQHLIEAQKLGIMDLLIEMAENGTDRGKRKAAQLLNRFSRFNDQQKQHSGLGLEDQISLI
B2: PUB12 (yeast two-hybrid fusion) (enzyme, UniProt Q9ZV31 1-654)
chain: B1 chain

Assays:
[1] = target: T1, C-terminal 3xHA-tagged CERK1 (Arabidopsis); experiment: co-IP; transient co-expression in N. benthamiana leaves; extract with 2% IGEPAL CA-630, 150 mM NaCl, pH 7.5; anti-HA magnetic beads; immunoblots
[2] = target: T2, PBL27 (yeast two-hybrid fusion) (Arabidopsis); experiment: two-hybrid; yeast; pBTM116 (bait, LexA) and pVP16 (prey) vectors; growth on plates lacking uracil, leucine, tryptophan and histidine with 2 mM 3-aminotriazole

Binder | binding [1] | binding [2]
B1 | binds | –
B2 | – | no binding
